Laboratory results: PMC5353636
Read-outs that look alike come from different tables or passages of the source. Results are given in words; binding and its absence hold for the method and conditions named. For part of these data: In cells and extracts the contact can be indirect. Some results given as binding are weak or reduced against the parent protein; the word gives no strength. For part of these data: Sequences can lack the tags named with a protein. Values belong to the molecule of their own block, whether it stands above or below them.

Sequences of proteins named here, by UniProt entry; tags and fusion partners are left off.
UniProt Q38898: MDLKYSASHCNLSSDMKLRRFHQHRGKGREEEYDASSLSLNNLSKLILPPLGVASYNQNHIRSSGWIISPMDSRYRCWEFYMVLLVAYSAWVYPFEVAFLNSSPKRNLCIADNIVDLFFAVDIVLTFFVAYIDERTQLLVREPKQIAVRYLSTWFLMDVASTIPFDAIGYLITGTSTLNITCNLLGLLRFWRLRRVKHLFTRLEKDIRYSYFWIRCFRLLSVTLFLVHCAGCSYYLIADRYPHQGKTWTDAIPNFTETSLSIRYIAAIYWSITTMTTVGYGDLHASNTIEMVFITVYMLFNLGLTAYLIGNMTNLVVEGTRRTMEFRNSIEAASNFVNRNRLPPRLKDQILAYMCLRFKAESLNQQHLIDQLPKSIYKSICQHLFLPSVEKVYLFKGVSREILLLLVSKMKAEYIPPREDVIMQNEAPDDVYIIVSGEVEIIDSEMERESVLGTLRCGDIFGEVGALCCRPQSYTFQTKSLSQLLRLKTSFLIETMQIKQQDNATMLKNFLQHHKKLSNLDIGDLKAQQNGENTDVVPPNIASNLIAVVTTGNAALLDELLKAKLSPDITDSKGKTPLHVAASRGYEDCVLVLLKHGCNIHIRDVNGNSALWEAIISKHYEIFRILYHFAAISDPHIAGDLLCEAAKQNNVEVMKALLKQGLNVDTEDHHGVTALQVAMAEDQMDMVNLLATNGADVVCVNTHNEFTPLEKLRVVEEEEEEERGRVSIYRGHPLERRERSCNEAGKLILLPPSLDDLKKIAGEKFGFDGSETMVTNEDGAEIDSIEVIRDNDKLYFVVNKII

How the values were obtained:
[1] = target: AKT2 fused to a Venus half for BiFC (AKT2:Ct-Venus; AKT2:Nt-Venus) (Arabidopsis thaliana) (UniProt Q38898); test: split reporter; split-Venus BiFC in Xenopus oocytes, confocal imaging
[2] = target: full-length AKT2 channel fused to the synthetic PLV transcription factor and the C-terminal domain of ubiquitin (PLV:Cub:AKT2) (Arabidopsis thaliana) (UniProt Q38898); test: two-hybrid; split ubiquitin-based membrane yeast two-hybrid; PLV:Cub:AKT2 as bait, NubG fusion of MRH1 as prey; co-transformed yeast strain L40; X-Gal reporter on selective medium, 7 days at 30 °C
[3] = target: AKT2-eGFP fusion protein (Arabidopsis thaliana) (UniProt Q38898); test: FRET or BRET; acceptor photobleaching FRET in Arabidopsis protoplasts; AKT2:eGFP donor, mRFP fusion acceptor
[4] = target: AKT2 fused to a Venus half for BiFC (AKT2:Ct-Venus; AKT2:Nt-Venus) (Arabidopsis thaliana) (UniProt Q38898); test: split reporter; split-Venus BiFC in Xenopus oocytes, confocal imaging; remark: listed apart in the source
[5] = target: T1, MRH1 fused to a Venus half for BiFC (MRH1:Nt-Venus; MRH1:Ct-Venus) (Arabidopsis thaliana) (UniProt C0LGQ4); test: as above
T1 sequence: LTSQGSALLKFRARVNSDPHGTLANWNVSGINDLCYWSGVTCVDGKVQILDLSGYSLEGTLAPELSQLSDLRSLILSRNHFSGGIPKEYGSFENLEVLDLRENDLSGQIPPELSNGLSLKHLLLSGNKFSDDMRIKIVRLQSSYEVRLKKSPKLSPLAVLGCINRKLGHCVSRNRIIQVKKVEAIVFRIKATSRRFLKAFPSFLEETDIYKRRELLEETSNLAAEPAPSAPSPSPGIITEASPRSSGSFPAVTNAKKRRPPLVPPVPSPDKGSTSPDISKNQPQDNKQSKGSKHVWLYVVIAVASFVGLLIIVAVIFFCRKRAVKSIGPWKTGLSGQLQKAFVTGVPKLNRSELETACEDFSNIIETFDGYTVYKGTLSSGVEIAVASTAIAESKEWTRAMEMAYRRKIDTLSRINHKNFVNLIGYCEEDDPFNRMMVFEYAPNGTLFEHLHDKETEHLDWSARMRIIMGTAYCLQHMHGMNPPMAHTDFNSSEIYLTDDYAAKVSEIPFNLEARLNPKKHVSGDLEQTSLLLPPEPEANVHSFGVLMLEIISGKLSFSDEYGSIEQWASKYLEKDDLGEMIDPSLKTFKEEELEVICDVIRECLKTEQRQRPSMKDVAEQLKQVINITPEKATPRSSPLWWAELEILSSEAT

[6] = target: T1, MRH1 fused to a Venus half for BiFC (MRH1:Nt-Venus; MRH1:Ct-Venus) (Arabidopsis thaliana); test: split reporter; BiFC, data not shown

Molecule: AKT2 fused to a Venus half for BiFC (AKT2:Ct-Venus; AKT2:Nt-Venus) (from UniProt Q38898 1-802)
binding [1]: binds

B3: MRH1 fused to a Venus half for BiFC (MRH1:Nt-Venus; MRH1:Ct-Venus) (protein, UniProt C0LGQ4 26-678)
chain: T1 sequence
binding [4]: binds
binding [5]: binds

Continued, values first:

binding [2]: binds
B1: full-length MRH1 kinase fused to the modified N-terminal domain of ubiquitin (NubG:MRH1) (protein, UniProt C0LGQ4 26-678)
chain: T1 sequence

binding [3]: binds
B2: MRH1-mRFP fusion protein (protein, UniProt C0LGQ4 26-678)
chain: T1 sequence

binding [6]: binds
B4: MRH2/MDIS1 (protein, UniProt C0LGU7 30-695)
chain: LESEGFVLLKFRARVDSDPHGTLANWNVSDHDHFCSWFGVTCVDNKVQMLNLSGCSLGGTLAPELSQLSELRSLILSKNKLSGDIPNEFASFAKLEFLDLRDNNLNGVVPPELNKVLTPENLLLSGNKFAGFMTVKFLRLQSLYKVQMNKNRELSSVSADVLDCVNRKLGYCVSRRSLITRNKAKAFVLRIRATSRHYMVRRESHGKNYVVNYHPSENETSIFKRRELLEETSNLAAMPAPDTPSPSPEIITIVFPRSSGSFPALTNAKKRIPPLIPPSSPPPLPTNNTIASDPPRKFEEKSKGFKDVWLYVVIGVAAFVAMLIIVAVIFFFRKRAVKSIGPWKTGLSGQLQKAFVTGVPKLNRSELETACEDFSNIIEAFDGYTVYKGTLSSGVEIAVASTAILETREWTRAMEMTYRRRIDTMSRVNHKNFINLIGYCEEDEPFNRMMVFEYAPNGTLFEHLHDKEMEHLDWNARTRIIMGTAYCLQYMHELNPPISHTKLVSSAIYLTDDYAAKVGEVPFSGQTGSKPRKPMSGDLDQSLLPLPPEPETNVYSFGVLMLEIISGKLSDSEEEGSILKWASKYLENDNLRDMIDPTLTTYKEEELEAICDVARHCLKLDESQRPKMKYVVQQLKEVINISQEQATPRLSPLWWAELEILSSEAT
